Assay results published in PubChem BioAssay AID493014 (National Center for Advancing Translational Sciences (NCATS), 2011).
In all, about 340,000 compounds went through this assay and about 170 (0.05%) were called active. This list was built around the results that the source calls inconclusive (neither active nor inactive); the mix of calls is not that of the screen. Calls come from the whole dose curve; as a rule, active = well fitted inhibition curve with a large enough effect in the signal ratio, with a control signal flat (not every such curve was filed as active); inconclusive = small, poorly fitted or top-dose-only effect, or effect the other way, or a change in a side signal; inactive = flat fitted curve, though single readings scatter; the % refers to the signal ratio. Potencies of inconclusive entries are doubtful fits and often do not repeat.

experiment: qHTS Assay to Find Inhibitors of Chronic Active B-Cell Receptor Signaling; details: ABC-DLBCL IkBa-CBG/CBR reporter, luminescence ratio (green luciferase fused to IkBa over red control in TMD8 lymphoma cells), 4 h; activity change, negative = inhibition: at 46.1 µM (top of the series) unless noted;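 for activity change, negative = inhibition: plate controls were basal doxycycline-induced cells for no effect and cells given 10 µM MG132 for full effect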
Procedure, shortened: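 Doxycycline induced both beetle luciferases in TMD8 lymphoma cells; IKK-driven degradation limits the IkappaBalpha-fused green signal, while red luminescence normalises for cell number and nonspecific effects. Compounds tested up to 46 uM, 4 hrs.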
Potency is the fitted concentration of half-maximal effect.

| SMILES | activity change, negative = inhibition | Potency |
| --- | --- | --- |
| CCn1c(=O)n(CC)c2cc(N3CCCC3)c(NC(=O)c3ccccc3Br)cc21 | inconclusive: -4.02% | – |
| Cn1c(CNc2ccc(Cl)cc2)nc2ccccc21 | – | inconclusive: 1.84 µM [rising, partial curve, poor fit] |
| Cc1ccc(C(=O)Nc2ncc(Cc3ccccc3)s2)o1 | inconclusive: -14.9% | – |
| Nc1c(O)ccc2c1C(=O)c1ccccc1C2=O | – | inconclusive: 9.2 µM [activator, partial curve, poor fit] |
| COc1ccc(CN2CCN(C(=O)c3cccnc3)CC2)cc1Br | inactive: 3.74% | – |
| Cc1cc(C)n(-c2ccc(C(=O)OC(C)C(=O)Nc3ccc(C(N)=O)cc3)cc2)n1 (centres undefined) | inactive: 4.83% | – |
| COc1ccc(OC)c(-c2c(=O)n(OCc3ccccc3Br)c3ccccc3[n+]2[O-])c1 | inconclusive: -0.289% | – |
| Cc1csc2nc(CNS(=O)(=O)c3ccc4c(c3)OCCO4)cn12 | inactive: 2.68% | – |
| CCN(CC)CCN(Cc1cc2ccc(C)c(C)c2[nH]c1=O)C(=S)NCc1ccco1 | inconclusive: -22.4% | – |
| CCCc1[nH]n(-c2nc3ccccc3s2)c(=O)c1C=NCC1CCCO1 (centres undefined) | – | inconclusive: 35.5 µM [rising, single point] |
| C=C1CCC2C(C)(C)[C@H](O)CC[C@@]2(C)[C@@H]1COc1cc(=O)oc2ccccc12 (some centres undefined) | inactive: -14.2% | – |
| Cc1c(Cl)c(C(=O)NNC(=S)Nc2ccccc2)nn1C | – | inconclusive: 1.3 µM [falling, partial curve] |
| O=C(Cc1ccccc1)c1c[nH]c(C(=O)C(Cl)(Cl)Cl)c1 | inactive: -0.482% | – |
| CCOc1ccc(N(CC(=O)Nc2cccc(OC)c2)S(=O)(=O)c2c(C)noc2C)cc1 | inconclusive: 16.9% | – |
| O=C(CSc1nnc(C2CC2)n1Cc1ccccc1)c1ccc(S(=O)(=O)N2CCOCC2)cc1 | inconclusive: 18.8% | – |
| O=C(Nc1nc(N2C(=O)c3ccccc3C2=O)n(-c2ccccc2)n1)c1ccccc1 | – | inconclusive: 16.4 µM [falling, partial curve] |
| Cc1ccc(C(=O)NCC(=O)OC(C)C(=O)Nc2ccc(N3CCOCC3)cc2)s1 (centres undefined) | inconclusive: 5.97% | – |
| COc1ccccc1NC(=O)CNC(=O)c1ccc(F)cc1 | inconclusive: -14.3% | – |
| CC(C)C[C@@H](CO)N(Cc1ccccc1)S(=O)(=O)N(Cc1ccccc1)[C@@H](CO)CC(C)C | inconclusive: 20.9% | – |
| Oc1c(Br)cc(Br)cc1/C=N/n1c(-c2ccccc2)n[nH]c1=S | inactive: -8.3% | – |

| SMILES | activity change, negative = inhibition | Potency |
| --- | --- | --- |
| CC1=NN(C(=O)c2ccccc2)C(O)(c2ccc(Br)cc2)C1 (centres undefined) | – | inconclusive: 35.5 µM [rising, single point] |
| CCN1C(=O)N(CC)C2NC(=S)NC21 (centres undefined) | inconclusive: 0.0775% | – |
| N/C(=N\OC(=O)c1ccc(Cl)cc1Cl)c1ccncc1 | inconclusive: 18% | – |
| COc1ccc(/C=C2\SC(=S)N(CCC(=O)Nc3ccccn3)C2=O)cc1OC | – | inconclusive: 31.6 µM [rising, partial curve] |
| O=C(C1=C[C@H](C2CCCCC2)C[C@H](OCCCCO)O1)N1CCN(Cc2ccc3c(c2)OCO3)CC1 | inconclusive: 1.15% | – |
| CC(=O)c1ccc(NC(=O)CN2C(=O)/C(=C/C=C/c3ccccc3)SC2=S)cc1 | inconclusive: -13% | – |
| COC(=O)CNS(=O)(=O)c1ccc(C)cc1 | inactive: -4.98% | – |
| CCOC(=O)c1c(CSc2ccc(C)cc2)n(C)c2cc(Br)c(O)c(CN(C)C)c12 | inconclusive: 8.25% | – |
| CC1(C)C(C=C(Cl)Cl)C1C(=O)N/N=C/c1ccccc1F (centres undefined) | inactive: 16.4% | – |
| CN(C)/C=C/c1onc(-c2c(F)cccc2Cl)c1C#N | inconclusive: -2.68% | – |
| CC1CN(C(=S)Nc2ccc(Br)cc2)CC(C)O1 (centres undefined) | inconclusive: 7.5% | – |
| O=C(/C(C=Nc1cc2c(oc1=O)CCCC2=O)=C(\O)c1ccccc1)c1ccccc1 | inconclusive: 9.02% | – |
| Cc1ccnc(NS(=O)(=O)c2ccc(NC(=O)c3oc4ccc(F)cc4c3C)cc2)n1 | inconclusive: 11.6% | – |
| CCCCC(=O)NC(c1ccc([N+](=O)[O-])cc1)c1c(O)ccc2ccccc12 (centres undefined) | – | inconclusive: 18.4 µM [rising, partial curve, poor fit] |
| COc1ccc(NC(=O)CCS(=O)(=O)c2cc(Br)cc3c2N(C(C)=O)CC3)c(OC)c1 | inconclusive: -17% | – |
| O=C(Cc1c(Cl)cccc1Cl)Nc1ccc(S(=O)(=O)Nc2ncccn2)cc1 | inactive: -8.22% | – |
| O=c1c(-c2ccc(O)cc2)coc2cc(O)cc(O)c12 | inconclusive: 7.58% | – |
| Cc1cc[n+](-c2nc([O-])sc2/C=N/Nc2ccc([N+](=O)[O-])cc2)cc1 | inconclusive: 17.6% | – |
| O=C(Nc1ccc(CN2CCOCC2)cc1)c1ccccc1F | – | inconclusive: 18.4 µM [falling, partial curve] |

Entries of single compounds from above:
`N/C(=N\OC(=O)c1ccc(Cl)cc1Cl)c1ccncc1` as listed: activity change, negative = inhibition: inconclusive: 18%
`O=C(Cc1c(Cl)cccc1Cl)Nc1ccc(S(=O)(=O)Nc2ncccn2)cc1` as listed: activity change, negative = inhibition: inactive: -8.22%
